Experimental data taken from paper PMC5348811.
Results are given in words; binding and its absence hold for the method and conditions named. In cells and extracts the contact can be indirect. Some results given as binding are weak or reduced against the parent protein; the word gives no strength. Where a sequence is shown, tags or fusion partners need not be part of it.

Chains of the proteins cited; added tags and fusions are not shown. Lines headed by an entry give the natural chain unless they say otherwise; changes in a name come on top.
UniProt O00716: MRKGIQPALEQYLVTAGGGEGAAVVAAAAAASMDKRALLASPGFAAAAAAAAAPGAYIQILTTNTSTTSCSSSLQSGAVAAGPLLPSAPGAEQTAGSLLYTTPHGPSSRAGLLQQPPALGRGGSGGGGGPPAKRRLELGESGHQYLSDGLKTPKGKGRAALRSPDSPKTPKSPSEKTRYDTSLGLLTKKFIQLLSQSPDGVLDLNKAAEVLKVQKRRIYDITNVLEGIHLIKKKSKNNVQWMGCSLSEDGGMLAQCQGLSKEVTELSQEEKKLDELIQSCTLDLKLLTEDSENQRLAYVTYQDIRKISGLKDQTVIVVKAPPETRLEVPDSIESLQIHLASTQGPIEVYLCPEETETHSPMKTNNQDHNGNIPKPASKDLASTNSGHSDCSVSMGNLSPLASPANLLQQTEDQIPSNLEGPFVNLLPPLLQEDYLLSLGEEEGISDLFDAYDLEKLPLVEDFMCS
UniProt Q9UM11: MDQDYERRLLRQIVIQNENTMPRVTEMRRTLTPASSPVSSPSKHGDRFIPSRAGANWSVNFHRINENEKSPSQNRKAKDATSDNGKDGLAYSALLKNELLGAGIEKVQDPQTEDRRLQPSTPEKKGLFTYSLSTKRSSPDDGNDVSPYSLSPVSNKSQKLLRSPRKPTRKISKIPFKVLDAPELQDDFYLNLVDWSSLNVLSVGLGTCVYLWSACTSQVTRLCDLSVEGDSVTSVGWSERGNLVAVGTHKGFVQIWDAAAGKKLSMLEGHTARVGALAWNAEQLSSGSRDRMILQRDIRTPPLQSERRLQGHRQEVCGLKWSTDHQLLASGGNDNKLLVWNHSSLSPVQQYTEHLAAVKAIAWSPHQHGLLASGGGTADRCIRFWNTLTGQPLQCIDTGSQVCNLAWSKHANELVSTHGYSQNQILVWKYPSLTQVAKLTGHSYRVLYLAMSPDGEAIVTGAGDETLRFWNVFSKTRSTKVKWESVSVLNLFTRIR

Biological target: T1, GST-RB large pocket (amino acids 379-928) (human) (UniProt P06400)
T1 sequence: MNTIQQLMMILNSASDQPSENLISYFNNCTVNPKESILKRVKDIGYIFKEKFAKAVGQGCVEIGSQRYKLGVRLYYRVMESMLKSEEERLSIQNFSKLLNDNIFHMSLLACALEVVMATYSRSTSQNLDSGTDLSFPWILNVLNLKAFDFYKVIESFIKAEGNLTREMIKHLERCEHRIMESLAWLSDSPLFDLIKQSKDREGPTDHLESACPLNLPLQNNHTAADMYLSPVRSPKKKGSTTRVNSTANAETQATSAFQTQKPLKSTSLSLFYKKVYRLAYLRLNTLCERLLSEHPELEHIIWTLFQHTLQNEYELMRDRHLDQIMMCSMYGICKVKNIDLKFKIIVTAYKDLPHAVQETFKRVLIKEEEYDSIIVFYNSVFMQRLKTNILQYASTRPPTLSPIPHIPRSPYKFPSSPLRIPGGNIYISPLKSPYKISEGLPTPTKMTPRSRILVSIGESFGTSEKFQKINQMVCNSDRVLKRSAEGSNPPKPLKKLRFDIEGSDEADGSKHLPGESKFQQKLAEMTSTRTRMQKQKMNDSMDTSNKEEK
Experiment: pull-down; competition: purified GST-RBLP or GST-RBLP^G with constant myc-CDH1 C33A extract and increasing amounts of HA-E2F3/DP1 C33A extract; glutathione beads; western blot for myc and HA; only the target purified

binding	Substance
binds	HA-E2F3/DP1 (from UniProt O00716 1-465; Q14186 1-410) (complex)
binds	myc tagged CDH1 (anaphase promoting complex targeting subunit) (from UniProt Q9UM11 1-496)
